These are yes or no findings as the source states them, for the method shown. Some entries that bind do so weakly or less than the wild type. Each block holds one binder with its values, some of them ahead of it.
Key:
[1] = target: Histidine-tagged human 4-1BB protein (h4-1BB-His) (human) (UniProt Q07011); test: SPR (Biacore T200), antibody captured on a Protein A chip, human 4-1BB (h4-1BB-His, same method as Example 5) injected at 100, 25, 6.25, 1.5625 and 0.390625 nM
[2] = target: Histidine-tagged human 4-1BB protein (h4-1BB-His) (human) (UniProt Q07011); test: SPR (Biacore T200), antibody captured on a Protein A chip, h4-1BB-His injected at 800, 200, 50, 12.5 and 3.125 nM

Amino acid sequences for entries named in this document (tags omitted). A change or cut given only in a name is not applied to a line headed by its entry.
UniProt Q07011: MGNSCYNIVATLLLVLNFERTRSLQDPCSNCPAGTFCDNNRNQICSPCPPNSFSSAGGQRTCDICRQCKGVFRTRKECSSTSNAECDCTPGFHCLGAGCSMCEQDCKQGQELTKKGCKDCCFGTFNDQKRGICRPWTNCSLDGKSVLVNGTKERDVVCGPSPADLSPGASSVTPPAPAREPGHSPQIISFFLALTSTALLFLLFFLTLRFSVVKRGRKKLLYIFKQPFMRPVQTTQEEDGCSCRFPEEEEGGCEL

binding [1]: binds
B1: 29-6A5-mHvKv-IgG2 (antibody, V domains shown)
VH: QVQLQQPGAELVRPGASVKLSCKASGYTFSSYWINWVKQRPGQGLEWIGNIYPSDSYTNYNQKFKDKATLTVDKSSSTAYMQLSSPTSDDSAVYYCTRTWEFYYDSVFDYWGQGTTLTVSS
VL: DIKMTQSPSSMYASLGERVTITCKASQDINSYLSWFQQKPGKSPKTLIYRANRLVDGVPSRFSGSGSGQDYSLTISSLEYEDMGIYYCLQYDELPPTFGGGTKLEIK

binding [2]: binds
B2: 16-1C4-mHvKv-IgG4 (antibody, V domains shown)
VH: QGQMQQSGAELVKPGASVKLSCKTSGFTFSSSYINWLKQKPGQSLEWIAWIFAGTGGTYYNQKFTGKAQLTVDTSSGTAYMQFSSLTTEDSAIYYCARHSPRATLFDFWGQGTTLTVSS
VL: QIVLSQSPAILSASPGEKVTMTCRASSSVNHMHWYQQRTGFSPKAWIYATSNLASGVPARFSGSGSGTSYSLTISRVEAEDAATYYCQQWSSNPYTFGGGTKLEIK
